This passage reports binding signal results from article PMC7862700.

Sequences of proteins named here, by UniProt entry; tags and fusion partners are left off. A change or cut given only in a name is not applied to a line headed by its entry.
UniProt P41212: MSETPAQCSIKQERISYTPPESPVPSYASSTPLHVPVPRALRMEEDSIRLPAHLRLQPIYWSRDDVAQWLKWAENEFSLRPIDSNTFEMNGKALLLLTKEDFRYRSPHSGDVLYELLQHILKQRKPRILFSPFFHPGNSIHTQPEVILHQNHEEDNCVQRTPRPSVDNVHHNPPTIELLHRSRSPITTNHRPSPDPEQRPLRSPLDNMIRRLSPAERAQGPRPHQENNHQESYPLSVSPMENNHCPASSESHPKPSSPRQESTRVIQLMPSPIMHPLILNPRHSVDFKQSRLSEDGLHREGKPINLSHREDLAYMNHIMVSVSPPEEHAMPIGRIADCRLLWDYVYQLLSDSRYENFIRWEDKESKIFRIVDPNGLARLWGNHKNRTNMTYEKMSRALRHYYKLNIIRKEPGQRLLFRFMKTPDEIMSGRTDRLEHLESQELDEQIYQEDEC

Only a part is listed here, and it is no random draw. At the low end of the ranking the order means little.

The target in this experiment is ETV6 (UniProt P41212). Nature of the experiment: DAPPL (digital affinity profiling via proximity ligation, sequencing). As to conditions: 10 mM Tris-HCl pH 7.5, 50 mM NaCl, 1 mM DTT, 4% glycerol, room temperature, 30 min; GST-TFs on glutathione beads, 16-mer random dsDNA library, 0.1% …; high values mean tight binding; double strand, one strand shown; scale: fold enrichment (6-mer frequency, TF over GST control).
CTGACC: the binding signal came to 1.32.
Next, TGCGTC: 0.965.
Next, ATTGTA: 1.27; TAGGTA: 0.996.
Regarding AAAGCT, the binding signal was 1.09.
The result for TTCCGA reads 1.85; that for TAAGTT, 1.49; that for CCAAGC, 0.943.
The result for CCTTAG reads 1.23.
Next, ACCTGA: 1.09.
For the sequence GTCCCA, the binding signal was determined as 1.03.
The result for GTACAC reads 1.29; that for TTGCCC, 1.23; that for CCGTCT, 1.39.
Turning to ACAAGA, the binding signal came to 0.934.
Regarding TACGCA, the binding signal came to 1.18.
The result for CCGCAG reads 1.
Next, TTGCAA: 1.16; CCCCTA: 1.22.
The result for TCCTTA reads 1.63.
GCGTTT displayed a binding signal of 1.04.
The sequence CGGAAG registered a binding signal of 3.4.
The result for ACTGAC reads 1.19; that for GGCCCT, 0.983.
The result for AGATGT reads 0.948; that for TTGCCA, 1.06; that for TACAGG, 1.19.
Next, CAAGAT: 1.01; TAGATG: 1.24.
In turn, TTATCG displayed a binding signal of 1.27.
The result for ATTTTC reads 1.43; that for TTCACG, 1.43.
In turn, AAGCGC returned a binding signal of 1.15.
Next, AAGCAA: 1.02.
The result for CGAACG reads 0.981; that for CATTCA, 1.09.
Next, TACGGC: 1.2; CCGCCA: 1.26.
Turning to AATATT, the binding signal turned out to be 1.46.
